The results in this text go back to paper doi:10.1101/2022.03.06.483192.

The assay addresses T1, SYCP1 (1-811) (human) (UniProt Q15431).
T1 sequence: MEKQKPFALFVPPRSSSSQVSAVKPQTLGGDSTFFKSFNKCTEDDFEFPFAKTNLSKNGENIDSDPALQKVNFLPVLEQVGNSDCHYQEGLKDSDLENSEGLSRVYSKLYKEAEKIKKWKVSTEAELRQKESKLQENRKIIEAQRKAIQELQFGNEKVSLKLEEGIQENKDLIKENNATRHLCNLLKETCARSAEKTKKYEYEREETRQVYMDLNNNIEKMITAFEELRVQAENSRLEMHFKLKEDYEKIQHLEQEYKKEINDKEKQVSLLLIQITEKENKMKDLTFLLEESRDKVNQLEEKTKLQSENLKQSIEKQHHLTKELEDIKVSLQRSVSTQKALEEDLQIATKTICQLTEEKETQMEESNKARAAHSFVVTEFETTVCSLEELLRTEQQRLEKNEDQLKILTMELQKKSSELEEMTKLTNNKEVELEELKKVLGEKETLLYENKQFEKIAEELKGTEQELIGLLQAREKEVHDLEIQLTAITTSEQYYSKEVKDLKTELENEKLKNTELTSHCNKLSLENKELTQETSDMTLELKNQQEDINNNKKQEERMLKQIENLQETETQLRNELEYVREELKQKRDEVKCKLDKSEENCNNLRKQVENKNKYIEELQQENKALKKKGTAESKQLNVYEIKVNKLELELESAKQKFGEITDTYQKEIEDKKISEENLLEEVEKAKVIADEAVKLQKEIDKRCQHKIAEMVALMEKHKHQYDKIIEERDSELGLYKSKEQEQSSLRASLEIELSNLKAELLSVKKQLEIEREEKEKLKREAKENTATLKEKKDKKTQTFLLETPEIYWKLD
Nature of the assay: two-hybrid.

No constants are given. Whether binding was seen depends on the method and setting. Some results given as binding are weak or reduced against the parent protein; the word gives no strength.

B1: SYCE3 (1-88) (protein, UniProt A1L190 1-88)
chain: MDDADPEERNYDNMLKMLSDLNKDLEKLLEEMEKISVQATWMAYDMVVMRTNPTLAESMRRLEDAFVNCKEEMEKNWQELLHETKQRL
For the molecule B1, the binding entry is listed as “binds”.
